PubChem BioAssay AID1159578 – Peter MacCallum Cancer Centre, 2015
The deposit covers about 18,000 reagents; below is an unselected part. Of all reagents, about 1,030 (5.7%) are marked active. 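Inactive calls also include pools with fewer than 3300 nuclei, whose migration was not assessed.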 Raw values vary from plate to plate and are shown uncorrected.

Purpose: 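Knock-downs that alter how fast lymphatic endothelial cells migrate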 (primary screen)
Cells: human lymphatic endothelial cells
Knock-down reagent: siRNA pool against human genes, 40 nM
Duration: 48 h after transfection
Detection: 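High-content imaging of dye-stained cells in a scratch assay measures filled wound area and nuclei per well; duplicate means given as ratio to mock and robust z-score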
Scale: migration robust z-score: higher = faster migration into the scratch; migration relative to mock: higher = more scratch area covered than mock; nuclei per well: higher = more cells in the well
Active means: 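Migration changed when robust z exceeds 2 or falls below -2 and mean nuclei number is at least 3300; otherwise not called changed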
Calls: active = migration changed; inactive = no migration change, or too few cells

| target gene | migration robust z-score | migration class with cell-count check | migration relative to mock | nuclei per well, duplicate mean | Call |
| --- | --- | --- | --- | --- | --- |
| LMO2 (GeneID 4005) | 0.88 | migration z between -2 and 2; enough cells | 1.12 | 5660 | inactive |
| KIAA1958 (GeneID 158405) | 1.85 | migration z between -2 and 2; enough cells | 1.36 | 5242 | inactive |
| SRD5A3 (GeneID 79644) | 2.08 | migration z above 2; enough cells | 1.21 | 7242 | active |
| CHSY1 (GeneID 22856) | -2.03 | migration z below -2; enough cells | 0.42 | 4393 | active |
| TBCC (GeneID 6903) | 1.47 | migration z between -2 and 2; enough cells | 1.27 | 5398 | inactive |
| PPP1R9B (GeneID 84687) | 0.78 | migration z between -2 and 2; enough cells | 1.08 | 5658 | inactive |
| KCNT1 (GeneID 57582) | -1.09 | migration z between -2 and 2; enough cells | 0.6 | 4687 | inactive |
| SAC3D1 (GeneID 29901) | 0.34 | migration z between -2 and 2; enough cells | 0.98 | 5512 | inactive |
| KCNA5 (GeneID 3741) | -0.62 | migration z between -2 and 2; enough cells | 0.68 | 5668 | inactive |
| ZNF382 (GeneID 84911) | -0.08 | migration z between -2 and 2; enough cells | 0.86 | 6514 | inactive |
| PMEPA1 (GeneID 56937) | -3.13 | under 3300 nuclei; migration not judged | 0.07 | 2922 | inactive |
| CERS1 (GeneID 10715) | -1.34 | migration z between -2 and 2; enough cells | 0.54 | 5406 | inactive |
| SLC12A8 (GeneID 84561) | -0.3 | migration z between -2 and 2; enough cells | 0.81 | 5700 | inactive |
| TAF6L (GeneID 10629) | 0.2 | migration z between -2 and 2; enough cells | 0.84 | 5968 | inactive |
| EGR2 (GeneID 1959) | -0.34 | migration z between -2 and 2; enough cells | 0.74 | 5696 | inactive |
| KRTAP6-3 (GeneID 337968) | -0.34 | migration z between -2 and 2; enough cells | 0.8 | 6294 | inactive |
| FXYD5 (GeneID 53827) | -1.09 | under 3300 nuclei; migration not judged | 0.6 | 3100 | inactive |
| SGSM1 (GeneID 129049) | -0.06 | migration z between -2 and 2; enough cells | 0.86 | 6840 | inactive |
| PAN3 (GeneID 255967) | -0.64 | migration z between -2 and 2; enough cells | 0.72 | 5732 | inactive |
| C2orf69 (GeneID 205327) | -3.25 | under 3300 nuclei; migration not judged | 0.04 | 2903 | inactive |
| OR14C36 (GeneID 127066) | -0.7 | migration z between -2 and 2; enough cells | 0.7 | 5740 | inactive |
| ANKEF1 (GeneID 63926) | 0.65 | migration z between -2 and 2; enough cells | 0.93 | 5648 | inactive |
| ABHD15 (GeneID 116236) | -1.54 | migration z between -2 and 2; enough cells | 0.48 | 4543 | inactive |
| DZIP1 (GeneID 22873) | 1.5 | migration z between -2 and 2; enough cells | 1.27 | 6168 | inactive |
| TLX1 (GeneID 3195) | -0.02 | migration z between -2 and 2; enough cells | 0.8 | 5740 | inactive |
| ERMAP (GeneID 114625) | 0.79 | migration z between -2 and 2; enough cells | 1.09 | 5746 | inactive |
| GGT7 (GeneID 2686) | 0.21 | migration z between -2 and 2; enough cells | 0.84 | 4896 | inactive |
| ENTHD1 (GeneID 150350) | 0.57 | migration z between -2 and 2; enough cells | 1.04 | 5696 | inactive |
| MLYCD (GeneID 23417) | 2.17 | migration z above 2; enough cells | 1.23 | 5827 | active |
| RPL26 (GeneID 6154) | -3.29 | under 3300 nuclei; migration not judged | 0.04 | 1831 | inactive |
| RNASE8 (GeneID 122665) | -0.01 | migration z between -2 and 2; enough cells | 0.88 | 7540 | inactive |
| AFG1L (GeneID 246269) | -1.25 | migration z between -2 and 2; enough cells | 0.56 | 4475 | inactive |
| PIK3C2A (GeneID 5286) | -2 | migration z between -2 and 2; enough cells | 0.42 | 3552 | inactive |
| CDH3 (GeneID 1001) | 2.12 | migration z above 2; enough cells | 1.44 | 6326 | active |
| TRAF3IP2 (GeneID 10758) | -0.4 | migration z between -2 and 2; enough cells | 0.78 | 4526 | inactive |
| ZC3H4 (GeneID 23211) | 2.27 | migration z above 2; enough cells | 1.48 | 5852 | active |
| TRMT13 (GeneID 54482) | -0.11 | migration z between -2 and 2; enough cells | 0.86 | 4222 | inactive |
| NBPF7P (GeneID 343505) | -0.43 | migration z between -2 and 2; enough cells | 0.77 | 4116 | inactive |
| C11orf42 (GeneID 160298) | 0.2 | migration z between -2 and 2; enough cells | 0.94 | 6064 | inactive |
| LMAN1L (GeneID 79748) | -0.89 | migration z between -2 and 2; enough cells | 0.66 | 5312 | inactive |
| NXF5 (GeneID 55998) | 0.29 | migration z between -2 and 2; enough cells | 0.96 | 3305 | inactive |
| LYPD3 (GeneID 27076) | 0 | migration z between -2 and 2; enough cells | 0.88 | 4801 | inactive |
| G6PD (GeneID 2539) | -1.55 | under 3300 nuclei; migration not judged | 0.5 | 3128 | inactive |
| CHIA (GeneID 27159) | 1.17 | migration z between -2 and 2; enough cells | 1.03 | 4310 | inactive |
| KCNH5 (GeneID 27133) | 0.29 | migration z between -2 and 2; enough cells | 0.86 | 5960 | inactive |
| ACVR1 (GeneID 90) | -1.33 | migration z between -2 and 2; enough cells | 0.55 | 3704 | inactive |
| SUSD3 (GeneID 203328) | -0.66 | migration z between -2 and 2; enough cells | 0.72 | 5532 | inactive |
| EIF4EBP3 (GeneID 8637) | -0.55 | under 3300 nuclei; migration not judged | 0.74 | 3175 | inactive |
| BIRC5 (GeneID 332) | 0.68 | under 3300 nuclei; migration not judged | 0.94 | 2578 | inactive |
| IQCF2 (GeneID 389123) | 1.56 | migration z between -2 and 2; enough cells | 1.29 | 5694 | inactive |
| DYNC2H1 (GeneID 79659) | 0.78 | migration z between -2 and 2; enough cells | 1.08 | 6507 | inactive |
| CNGB3 (GeneID 54714) | -0.18 | migration z between -2 and 2; enough cells | 0.77 | 6544 | inactive |
| CYLD (GeneID 1540) | -1.01 | migration z between -2 and 2; enough cells | 0.61 | 4728 | inactive |
| IFITM3 (GeneID 10410) | -0.58 | migration z between -2 and 2; enough cells | 0.74 | 4704 | inactive |
| XKR7 (GeneID 343702) | 0.72 | migration z between -2 and 2; enough cells | 1.07 | 6354 | inactive |
| LEMD1 (GeneID 93273) | 0.32 | migration z between -2 and 2; enough cells | 0.97 | 6216 | inactive |
| GALNT1 (GeneID 2589) | -0.18 | migration z between -2 and 2; enough cells | 0.77 | 5420 | inactive |

Reformatted: results already given
target gene | migration robust z-score | migration class with cell-count check | migration relative to mock | nuclei per well, duplicate mean | Call
C2orf69 (GeneID 205327) | -3.25 | under 3300 nuclei; migration not judged | 0.04 | 2903 | inactive
OR14C36 (GeneID 127066) | -0.7 | migration z between -2 and 2; enough cells | 0.7 | 5740 | inactive
ANKEF1 (GeneID 63926) | 0.65 | migration z between -2 and 2; enough cells | 0.93 | 5648 | inactive
ABHD15 (GeneID 116236) | -1.54 | migration z between -2 and 2; enough cells | 0.48 | 4543 | inactive
DZIP1 (GeneID 22873) | 1.5 | migration z between -2 and 2; enough cells | 1.27 | 6168 | inactive
TLX1 (GeneID 3195) | -0.02 | migration z between -2 and 2; enough cells | 0.8 | 5740 | inactive
ERMAP (GeneID 114625) | 0.79 | migration z between -2 and 2; enough cells | 1.09 | 5746 | inactive
GGT7 (GeneID 2686) | 0.21 | migration z between -2 and 2; enough cells | 0.84 | 4896 | inactive
ENTHD1 (GeneID 150350) | 0.57 | migration z between -2 and 2; enough cells | 1.04 | 5696 | inactive
